No constants are given. Whether binding was seen depends on the method and setting. Some entries that bind do so weakly or less than the wild type.
B1: Monoclonal antibody SAIT-Ang-2-5 (antibody, V domains shown)
VH: DVQLVESGGGLAQPGGSRKLSCAASGFTFSNFGMHWVRQAPEKGLDWVAYISSGSDTIYYADTVKGRFTISRDNPKNTLFLQMTSLRSEDTAMYYCARESTMITMGYVLDYWGQGTSVTVSS
VL: DIQMTQSPASQSASLGESVTITCLASQTIGTWLAWYQQKPGKSPQLLIYAATSLADGVPSRFSGSGSGTKFSLKISSLQAEDFVSYYCQQLYSIPLTIGAGTKLELK
notes: also called antibody of hybridoma KCLRF-BP-00221
B2: Monoclonal antibody SAIT-Ang-2-6 (antibody, V domains shown)
VH: QVQLQQPGSELVRPGTSVKLSCKASGYTFTNYLMHWVKQRPGQGLEWIGNIYPGSGATNYDEKFKSKATLTVDISSSTAYMQLISLTSEDSAVYYCTRDDYDGSWFAYWGQGTLVTVSA
VL: DIVMTQSPSSLSVSAGEKVTMTCKSSQSLLISGNQKNFLAWYQQKPGQPPKLLIYGASTRDSGVPDRFTGSGSGTDFTLTISSVQAEDLAVYYCQNDHSYPLTFGTGTKLELK
notes: also called antibody of hybridoma KCLRF-BP-00222

Amino acid sequences for entries named in this document (tags omitted). Residues count along the entry.
UniProt O15123, residues 19-496: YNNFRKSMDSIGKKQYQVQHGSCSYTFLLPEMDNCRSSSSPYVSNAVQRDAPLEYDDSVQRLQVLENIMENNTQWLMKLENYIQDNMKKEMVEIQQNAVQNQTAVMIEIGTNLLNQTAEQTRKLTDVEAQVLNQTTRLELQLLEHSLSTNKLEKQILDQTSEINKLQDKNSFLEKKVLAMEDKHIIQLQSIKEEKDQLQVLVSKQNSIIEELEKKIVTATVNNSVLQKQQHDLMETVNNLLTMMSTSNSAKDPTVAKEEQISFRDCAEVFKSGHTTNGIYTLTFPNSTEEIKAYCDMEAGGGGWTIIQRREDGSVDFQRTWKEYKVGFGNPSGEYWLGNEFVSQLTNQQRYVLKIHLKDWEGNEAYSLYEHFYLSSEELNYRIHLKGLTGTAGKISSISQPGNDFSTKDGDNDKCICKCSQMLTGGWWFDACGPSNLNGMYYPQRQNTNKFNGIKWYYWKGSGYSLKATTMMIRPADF

Target: angiopoietin-2 (antigen coated in the hybridoma screening ELISA) (UniProt O15123)
Test: ELISA on coated angiopoietin-2, hybridoma culture, anti-mouse IgG-HRP

| Binder | binding |
| --- | --- |
| B1 | binds |
| B2 | binds |
